Data published in PMC8069300.
These are yes or no findings as the source states them, for the method shown. Binding seen in cells or lysates may run through a third protein. Some binding calls cover weakened binding; strength is not graded here.

Protein sequences, listed by entry. Tags and fused reporters are not part of them. Lines headed by an entry give the natural chain unless they say otherwise; changes in a name come on top. Residues count along the entry.
UniProt Q13315: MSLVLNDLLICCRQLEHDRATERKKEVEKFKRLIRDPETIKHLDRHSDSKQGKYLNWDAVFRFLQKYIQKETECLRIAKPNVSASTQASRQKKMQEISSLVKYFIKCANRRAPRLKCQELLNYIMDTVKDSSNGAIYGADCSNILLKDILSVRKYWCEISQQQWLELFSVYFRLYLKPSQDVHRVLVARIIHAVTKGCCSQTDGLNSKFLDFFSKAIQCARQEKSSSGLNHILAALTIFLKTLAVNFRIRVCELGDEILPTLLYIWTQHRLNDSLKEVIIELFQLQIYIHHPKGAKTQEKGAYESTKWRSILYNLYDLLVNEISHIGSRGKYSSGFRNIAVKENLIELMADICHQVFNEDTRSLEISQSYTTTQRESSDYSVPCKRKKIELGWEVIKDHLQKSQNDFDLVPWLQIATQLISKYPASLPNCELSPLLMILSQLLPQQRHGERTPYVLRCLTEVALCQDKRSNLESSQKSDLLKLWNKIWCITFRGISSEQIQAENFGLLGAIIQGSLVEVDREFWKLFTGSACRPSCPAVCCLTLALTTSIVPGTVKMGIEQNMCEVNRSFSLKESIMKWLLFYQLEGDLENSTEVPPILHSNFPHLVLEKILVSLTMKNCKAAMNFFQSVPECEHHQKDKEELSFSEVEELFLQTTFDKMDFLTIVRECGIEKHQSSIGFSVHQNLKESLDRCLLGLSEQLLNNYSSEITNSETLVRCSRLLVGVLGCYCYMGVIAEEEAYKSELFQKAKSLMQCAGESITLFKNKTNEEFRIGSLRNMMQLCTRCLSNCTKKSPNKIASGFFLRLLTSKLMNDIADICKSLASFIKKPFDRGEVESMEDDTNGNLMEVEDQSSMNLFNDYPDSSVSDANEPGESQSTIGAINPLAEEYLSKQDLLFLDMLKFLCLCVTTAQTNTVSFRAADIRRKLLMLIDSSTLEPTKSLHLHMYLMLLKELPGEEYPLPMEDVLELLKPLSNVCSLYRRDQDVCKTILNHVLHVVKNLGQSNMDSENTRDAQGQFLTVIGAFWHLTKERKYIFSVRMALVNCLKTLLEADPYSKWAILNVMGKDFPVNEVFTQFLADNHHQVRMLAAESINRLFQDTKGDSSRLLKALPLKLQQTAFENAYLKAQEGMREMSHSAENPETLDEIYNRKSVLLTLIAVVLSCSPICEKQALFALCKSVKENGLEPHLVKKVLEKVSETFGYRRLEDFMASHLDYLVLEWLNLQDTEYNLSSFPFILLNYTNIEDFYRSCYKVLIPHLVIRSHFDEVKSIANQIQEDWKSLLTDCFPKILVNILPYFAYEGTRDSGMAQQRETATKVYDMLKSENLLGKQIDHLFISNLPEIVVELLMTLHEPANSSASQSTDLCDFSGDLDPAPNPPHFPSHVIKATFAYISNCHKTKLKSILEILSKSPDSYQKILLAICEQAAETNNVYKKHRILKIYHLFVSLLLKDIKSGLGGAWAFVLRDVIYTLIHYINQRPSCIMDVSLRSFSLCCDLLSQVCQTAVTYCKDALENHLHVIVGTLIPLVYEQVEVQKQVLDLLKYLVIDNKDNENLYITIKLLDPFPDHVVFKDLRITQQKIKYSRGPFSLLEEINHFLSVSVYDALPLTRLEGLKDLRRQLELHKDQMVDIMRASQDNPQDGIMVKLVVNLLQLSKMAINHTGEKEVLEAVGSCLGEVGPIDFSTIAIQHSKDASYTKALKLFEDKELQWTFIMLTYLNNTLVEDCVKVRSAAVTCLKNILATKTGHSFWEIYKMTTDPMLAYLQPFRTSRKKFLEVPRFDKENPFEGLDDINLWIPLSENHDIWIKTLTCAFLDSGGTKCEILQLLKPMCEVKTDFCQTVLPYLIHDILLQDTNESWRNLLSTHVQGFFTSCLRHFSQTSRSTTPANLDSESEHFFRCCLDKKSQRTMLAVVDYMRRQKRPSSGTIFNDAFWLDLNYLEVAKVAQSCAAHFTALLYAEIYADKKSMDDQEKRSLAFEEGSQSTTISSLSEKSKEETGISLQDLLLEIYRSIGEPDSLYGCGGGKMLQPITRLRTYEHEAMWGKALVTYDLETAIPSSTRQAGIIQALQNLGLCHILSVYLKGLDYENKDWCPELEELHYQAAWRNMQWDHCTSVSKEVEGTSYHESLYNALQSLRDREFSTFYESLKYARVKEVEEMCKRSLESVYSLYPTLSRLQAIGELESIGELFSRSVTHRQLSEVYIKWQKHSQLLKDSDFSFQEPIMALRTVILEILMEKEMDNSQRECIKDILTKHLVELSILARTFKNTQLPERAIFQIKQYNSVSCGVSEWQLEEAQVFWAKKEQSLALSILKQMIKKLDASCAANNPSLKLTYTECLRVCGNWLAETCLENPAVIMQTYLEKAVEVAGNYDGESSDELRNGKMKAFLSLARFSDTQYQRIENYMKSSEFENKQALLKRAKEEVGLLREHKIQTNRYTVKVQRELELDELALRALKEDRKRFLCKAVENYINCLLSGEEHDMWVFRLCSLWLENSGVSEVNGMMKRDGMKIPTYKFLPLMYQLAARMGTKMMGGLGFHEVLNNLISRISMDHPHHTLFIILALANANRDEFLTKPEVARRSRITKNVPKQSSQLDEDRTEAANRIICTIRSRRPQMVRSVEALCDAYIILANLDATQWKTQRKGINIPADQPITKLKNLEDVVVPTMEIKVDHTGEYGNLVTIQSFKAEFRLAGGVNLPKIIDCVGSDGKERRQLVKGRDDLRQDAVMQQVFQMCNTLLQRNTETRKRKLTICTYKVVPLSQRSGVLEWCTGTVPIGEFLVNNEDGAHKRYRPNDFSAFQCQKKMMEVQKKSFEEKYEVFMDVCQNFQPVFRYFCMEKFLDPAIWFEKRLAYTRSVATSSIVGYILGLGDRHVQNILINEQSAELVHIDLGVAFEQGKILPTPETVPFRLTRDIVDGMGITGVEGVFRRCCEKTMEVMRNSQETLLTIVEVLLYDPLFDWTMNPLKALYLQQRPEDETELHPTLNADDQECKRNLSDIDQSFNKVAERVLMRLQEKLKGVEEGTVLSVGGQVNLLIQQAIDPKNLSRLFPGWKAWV
UniProt Q15109, residues 23-404: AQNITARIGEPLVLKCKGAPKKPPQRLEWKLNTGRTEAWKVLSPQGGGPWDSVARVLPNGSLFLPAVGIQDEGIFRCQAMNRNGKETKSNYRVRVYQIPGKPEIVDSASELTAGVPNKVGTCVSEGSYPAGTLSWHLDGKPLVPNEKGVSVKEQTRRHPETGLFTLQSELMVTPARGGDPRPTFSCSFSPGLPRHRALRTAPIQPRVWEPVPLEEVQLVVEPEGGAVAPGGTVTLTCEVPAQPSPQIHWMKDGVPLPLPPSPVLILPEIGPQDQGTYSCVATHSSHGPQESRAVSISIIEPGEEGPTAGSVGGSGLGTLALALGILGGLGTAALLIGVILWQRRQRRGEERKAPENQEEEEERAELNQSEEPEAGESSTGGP

Tests used:
[1] = biological target: phosphorylated ataxia-telangiectasia-mutated kinase (pATM) (human (endogenous in placenta, Sw.71 and Bewo cells)) (UniProt Q13315); assay: co-IP; Bewo cells, untreated or treated with 1% CSE for 24 h; lysed in RIPA buffer with 50 U/mL Benzonase and protease/phosphatase inhibitors; 300 ug lysate, IP with anti-pATM or anti-MRE11 overnight at 4 C, A/G-agarose beads, western blot for RAGE
[2] = biological target: T1, double-strand break repair protein MRE11 (human (endogenous in placenta, Sw.71 and Bewo cells)) (UniProt P49959); assay: as above
T1 sequence: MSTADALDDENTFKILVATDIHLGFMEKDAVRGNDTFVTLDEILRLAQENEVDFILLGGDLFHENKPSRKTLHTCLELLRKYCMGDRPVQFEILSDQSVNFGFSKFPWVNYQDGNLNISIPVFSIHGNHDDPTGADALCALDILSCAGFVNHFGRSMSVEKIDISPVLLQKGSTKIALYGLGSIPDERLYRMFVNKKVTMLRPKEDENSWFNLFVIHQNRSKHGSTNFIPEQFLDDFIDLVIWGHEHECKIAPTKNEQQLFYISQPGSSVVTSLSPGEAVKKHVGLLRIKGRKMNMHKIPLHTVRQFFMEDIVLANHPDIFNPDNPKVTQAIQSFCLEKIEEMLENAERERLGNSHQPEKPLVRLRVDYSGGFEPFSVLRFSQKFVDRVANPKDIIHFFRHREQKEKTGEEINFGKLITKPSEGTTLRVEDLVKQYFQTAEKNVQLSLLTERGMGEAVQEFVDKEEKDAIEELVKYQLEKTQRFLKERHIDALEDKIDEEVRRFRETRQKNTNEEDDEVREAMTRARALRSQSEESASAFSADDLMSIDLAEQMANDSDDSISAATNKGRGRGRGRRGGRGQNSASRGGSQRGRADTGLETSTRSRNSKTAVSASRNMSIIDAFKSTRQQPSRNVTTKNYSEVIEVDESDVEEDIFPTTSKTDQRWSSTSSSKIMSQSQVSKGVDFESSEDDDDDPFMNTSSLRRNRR

[3] = biological target: phosphorylated ataxia-telangiectasia-mutated kinase (pATM) (human (endogenous in placenta, Sw.71 and Bewo cells)) (UniProt Q13315); assay: co-IP; human placenta samples (control, PE, PTL); immunoprecipitation of pATM or MRE11, western blot for RAGE
[4] = biological target: T1, double-strand break repair protein MRE11 (human (endogenous in placenta, Sw.71 and Bewo cells)); assay: as above
[5] = biological target: phosphorylated ataxia-telangiectasia-mutated kinase (pATM) (human (endogenous in placenta, Sw.71 and Bewo cells)) (UniProt Q13315); assay: co-IP; Sw.71 cells, untreated or treated with 1% CSE for 24 h; lysed in RIPA buffer with 50 U/mL Benzonase and protease/phosphatase inhibitors; 300 ug lysate, IP with anti-pATM or anti-MRE11 overnight at 4 C, A/G-agarose beads, western blot for RAGE
[6] = biological target: T1, double-strand break repair protein MRE11 (human (endogenous in placenta, Sw.71 and Bewo cells)); assay: as above

Measured: binding

receptor for advanced glycation end-products (RAGE) (from UniProt Q15109 23-404)
binds: all assays above
